# Assay results reported in PubChem BioAssay AID2685 (National Center for Advancing Translational Sciences (NCATS), 2010).
# The whole screen tested about 320,000 compounds, of which about 2,100 (0.66%) were called active. Inconclusive results, whose numbers are uncertain, are shown with a selection of clear calls. Calls follow the shape of the dose curve; as a rule, active = well fitted inhibition curve with a large enough effect in the signal ratio, with a control signal flat (not every such curve was filed as active); inconclusive = small, poorly fitted or top-dose-only effect, or effect the other way, or a change in a side signal; inactive = flat fitted curve, though single readings scatter; the % refers to the signal ratio. A potency beside an inconclusive call is a rough fit, not a confirmed value.
# Assay: qHTS Assay for Lipid Storage Modulators in Drosophila S3 Cells
# Details: BODIPY lipid droplet fluorescence, 18-24 h, cells fed with added oleic acid; lipid storage change, negative = inhibition: at 46.1 µM (top of the series) unless noted
# Method in brief: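 Drosophila S3 cells loaded with oleic acid (400 uM, as added) and compounds at several concentrations; lipid droplets imaged by 488-nm laser-scanning cytometry, 500–530 nm intensity and object ratio to cell channel. Percent activity normalized to 20 uM Triacsin C.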
# % is scaled to controls: 0 for no effect and ±100 for the full control effect; potency is read from the fitted curve at half-maximal effect.
SMILES,"lipid storage change, negative = inhibition",Potency
O=C(O)CC1(CC(=O)Nc2ccc(C(F)(F)F)cc2)CCCC1,inconclusive: -8.85%,–
CS(=O)(=O)N(CC(=O)NC1CC1)C1CCCCC1,inconclusive: -3.82%,–
COc1cc(C(=O)OCC(=O)N2CCCC2)cc2c1OCCO2,–,"inconclusive: 29.1 µM [activator, single point]"
COc1cccc(CCNC(=O)CCc2nnc(Cc3cc(OC)ccc3OC)o2)c1,inconclusive: -26.6%,–
CN(C(=O)c1ccc(NC(=O)C2CC=CCC2C(=O)O)cc1)c1ccccc1 (configuration not stated),inactive: -13.4%,–
Nc1nonc1C(=Nc1ccccc1)NO,–,"inconclusive: 3.66 µM [falling, full curve]"
CCOC(=O)N1CCN(CC(=O)Nc2c(C(=O)OC)[nH]c3cccc(Cl)c23)CC1,inconclusive: 3.22%,–
Cc1cc(C)c(NC(=O)COc2cccnc2[N+](=O)[O-])c(C)c1,inconclusive: -34%,–
O=C1c2ccccc2C(=O)C1c1ccncc1,–,"inconclusive: 8.2 µM [activator, partial curve]"
CC1=C(C(N)=O)C(c2cccs2)n2ncnc2N1 (configuration not stated),inactive: -8.85%,–
CCc1ccc2nc(N(CCCN(C)C)C(=O)c3ccc4c(c3)OCCO4)sc2c1,inconclusive: -13.1%,–
O=C(CCCOc1ccc(Cl)cc1)NC1CCCCC1,inconclusive: 36.7%,–
Cc1nn(C(=O)c2ccc([N+](=O)[O-])cc2)c(C)c1Br,inconclusive: 0.835%,–
Cc1c(Cl)cccc1NC(=O)CCN1CCCCC1,inconclusive: 31%,–
NC(=O)c1c(NC(=O)CCCC(=O)O)sc2c1CCCCCC2,inconclusive: 0.846%,–
CC(C)(C)c1ccc(OCC(=O)O)cc1,inconclusive: 6.95%,"inconclusive: 3.26 µM [falling, partial curve, poor fit]"
NC(Cc1ccc(O)cc1)c1cn([C@@H](CCC(=O)O)C(=O)N2CCNCC2)nn1 (some centres not stated),inconclusive: -2.78%,–
COC(=O)c1ccc(S(=O)(=O)NNC(=O)COc2ccc(C)cc2)cc1,inconclusive: 9.5%,–
Cc1ccc(-c2cc3onc(-c4ccccc4)c3c(=O)n2C)cc1,inconclusive: -18.6%,–
CN(CC(=O)Nc1ccccc1C(F)(F)F)C(=O)c1ccccc1Sc1ccccc1C#N,–,"inconclusive: 6.51 µM [falling, single point]"
O=C(Nc1ccc(S(=O)(=O)N2CCCC2)cc1)c1ccc(OCC2CCCO2)cc1 (configuration not stated),inconclusive: -37.2%,–
O=C(CSc1nnc(Cc2cccs2)n1Cc1ccco1)Nc1cc(Cl)cc(Cl)c1,inconclusive: 5.78%,–
COc1ccc(N2C(=S)NC3N2C(=S)NC3(C)c2ccccc2)cc1 (configuration not stated),inconclusive: -14.6%,–
CC1(C)CC(=O)C/C(=N/NC(=O)COc2ccc3ccccc3c2Br)C1,–,"inconclusive: 29.1 µM [activator, single point]"
CN1CCN(C(c2ccc(Br)cc2)c2cc(Cl)c3cccnc3c2O)CC1 (configuration not stated),–,active: 20.6 µM
CCOc1ccc(C2SCC(=O)N2c2c(C)n(C)n(-c3ccccc3)c2=O)cc1 (configuration not stated),–,"inconclusive: 6.51 µM [falling, single point]"

SMILES,"lipid storage change, negative = inhibition",Potency
COc1cccc2cc(C(=O)NCCc3ccccc3)oc12,inconclusive: -52.5%,–
N#C/C(C(=O)NCc1ccccc1)=C1/SC(Cc2ccc(Cl)cc2)C(=O)N1c1ccccc1 (configuration not stated),inconclusive: -7.6%,–
Cc1ccccc1-c1nnc(SCC#N)o1,inconclusive: 19.8%,–
O=C(Nc1ccccn1)c1ccc(Cl)c(S(=O)(=O)N2CCc3ccccc32)c1,inconclusive: 13.1%,–
COc1ccc(CCNC(=O)c2c(N)no[n+]2[O-])cc1OC,inconclusive: 3.54%,–
CCN1CCN(C(CNS(=O)(=O)c2ccc(C)cc2)c2cccnc2)CC1 (configuration not stated),–,"inconclusive: 2.06 µM [falling, single point]"
COc1nc(NCCC2=CCCCC2)nc(OC)n1,inconclusive: -16.1%,–
COc1ccc(-c2nc(CS(=O)CC(=O)N3CCN(C)CC3)c(C)o2)cc1 (configuration not stated),inconclusive: 211%,–
CSc1ccccc1NC(=O)Nc1cccc(F)c1,inconclusive: -4.38%,–
CC1CN(C(=O)COc2ccc3ccccc3c2Br)CC(C)O1 (configuration not stated),inconclusive: -12.3%,–
O=C(NN=C1CCN(Cc2ccccc2)CC1)c1cc2ccccc2cc1O,inconclusive: 2.71%,–
O=C(NCc1cccnc1)c1ccc(-c2cc3ccccc3oc2=O)cc1,–,"inconclusive: 6.51 µM [falling, single point]"
CCOc1ccccc1CNc1nc2ccccc2n1C,inconclusive: 6.27%,–
C/C(CC(=O)Nc1ccc(Cl)cc1Cl)=N\NC(=O)C(=O)NCCO,inconclusive: 19.7%,–
Cc1c2c(nc3nnnn13)CCCC2,inconclusive: -13.2%,–
CN(C)S(=O)(=O)n1cnc([C@H]2c3c(ncn3Cc3ccccc3)C[C@H]3COC(=O)[C@@H]32)c1,inconclusive: 13%,–
Cc1cc(S(=O)(=O)N2CCN(CC(=O)NCCc3cccs3)CC2)ccc1Br,–,active: 6.51 µM
O=C(NCc1ccccc1)C12CC3CC(CC(Br)(C3)C1)C2,inconclusive: -5.45%,–
CCOC(=O)c1c(NC(=O)COc2ccccc2)sc2c1CC(C)(C)NC2(C)C,–,"inconclusive: 0.0046 µM [falling, full curve, poor fit]"
COc1ccc(S(=O)(=O)N2CCC(N3CCCCC3)CC2)cc1,–,"inconclusive: 0.146 µM [falling, full curve, poor fit]"
CC(=O)N1c2ccc(S(=O)(=O)N3CCCC3C(=O)Nc3ccc(C)cc3)cc2CC1C (configuration not stated),inconclusive: 31.7%,–
CC(C)CCSc1nc(N2CCOCC2)c2c(c1C#N)CC(C)(C)OC2,–,"inconclusive: 0.366 µM [falling, full curve]"
CCS(=O)(=O)c1nc(S(=O)(=O)c2ccc(C)cc2)c(NCc2ccccn2)s1,inactive: -3.31%,–
O=C(OC1CCN(c2ncc(C(F)(F)F)cc2Cl)CC1)c1cccc(C(F)(F)F)c1,–,"inconclusive: 3.66 µM [falling, single point]"
COc1cc2c(cc1O)CC[n+]1cc3c(OC)c(OC)ccc3cc1-2,inconclusive: 4.94%,–

# Four records picked at random from the list so far:
SMILES,"lipid storage change, negative = inhibition",Potency
O=C(O)CC1(CC(=O)Nc2ccc(C(F)(F)F)cc2)CCCC1,inconclusive: -8.85%,–
CN(CC(=O)Nc1ccccc1C(F)(F)F)C(=O)c1ccccc1Sc1ccccc1C#N,–,"inconclusive: 6.51 µM [falling, single point]"
COc1ccc(S(=O)(=O)N2CCC(N3CCCCC3)CC2)cc1,–,"inconclusive: 0.146 µM [falling, full curve, poor fit]"
Cc1ccccc1-c1nnc(SCC#N)o1,inconclusive: 19.8%,–
